# No constants are given. Whether binding was seen depends on the method and setting.
# The chains behind the UniProt entries cited, without tags or fusion partners.
# UniProt P05556: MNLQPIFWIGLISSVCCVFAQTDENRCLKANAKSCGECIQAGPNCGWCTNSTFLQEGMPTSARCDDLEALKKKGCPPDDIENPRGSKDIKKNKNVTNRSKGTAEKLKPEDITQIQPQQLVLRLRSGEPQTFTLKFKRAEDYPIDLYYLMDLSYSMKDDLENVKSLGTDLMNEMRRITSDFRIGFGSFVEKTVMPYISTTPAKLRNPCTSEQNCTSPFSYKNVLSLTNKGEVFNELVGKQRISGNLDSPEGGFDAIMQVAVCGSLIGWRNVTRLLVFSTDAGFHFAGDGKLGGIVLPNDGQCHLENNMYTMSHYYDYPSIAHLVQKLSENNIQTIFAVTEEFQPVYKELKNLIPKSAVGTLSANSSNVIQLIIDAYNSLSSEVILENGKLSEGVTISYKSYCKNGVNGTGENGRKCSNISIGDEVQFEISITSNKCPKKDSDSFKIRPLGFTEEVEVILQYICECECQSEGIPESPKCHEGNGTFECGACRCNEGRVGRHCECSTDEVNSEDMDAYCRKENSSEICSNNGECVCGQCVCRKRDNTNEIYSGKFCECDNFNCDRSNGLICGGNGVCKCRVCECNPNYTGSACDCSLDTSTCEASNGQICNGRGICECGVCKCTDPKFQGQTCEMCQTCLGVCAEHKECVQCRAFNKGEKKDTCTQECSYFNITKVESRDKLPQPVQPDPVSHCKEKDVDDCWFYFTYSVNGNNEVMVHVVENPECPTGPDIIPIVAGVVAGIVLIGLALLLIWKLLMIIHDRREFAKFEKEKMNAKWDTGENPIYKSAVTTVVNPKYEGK
# UniProt B5Z6P9: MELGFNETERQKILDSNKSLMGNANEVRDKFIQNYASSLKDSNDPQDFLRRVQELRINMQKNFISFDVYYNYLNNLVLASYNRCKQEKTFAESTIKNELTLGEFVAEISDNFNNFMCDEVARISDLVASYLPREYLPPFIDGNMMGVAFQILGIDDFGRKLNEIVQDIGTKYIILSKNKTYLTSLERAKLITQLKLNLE
# Target: β1 integrin on GE11β cells (human) (UniProt P05556)
# Experiment: flow cytometry on cells; only the binder purified
substance,measurement,value
GST-CagZ (HP0526) (from UniProt B5Z6P9 1-199),binding,no binding (tested: 30mg/1×10^6 cells)
